# The supplement of paper PMC8728848
# The other results are listed elsewhere or left out.
# B1: SLLPI (Mus musculus), Q9D9X8 (protein)
# chain: MGICMSMYTQVLVPVDADGDHHILWSRFYERWGSCFNPCAGLVNCLPPHSSALYLCHRMEARSRAPRRQLCPPGITWLALAYLLSCLLASSKAKVFSRCELAKEMHDFGLDGYRGYNLADWVCLAYYTSGFNTNAVDHEADGSTNNGIFQISSRRWCRTLASNGPNLCRIYCTDLLNNDLKDSIVCAMKIVQEPLGLGYWEAWRHHCQGRDLSDWVDGCDF
# What was measured:
# Assay in all cases: glycan array binding signal (z-score within array); higher = stronger binding
# Details in all cases: glycan notation: IUPAC condensed, linker removed
# [1] = target: Man(a1-3)[Man(a1-6)]Man(a1-6)[Man(a1-3)]Man
# In short: (§1)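 The Consortium for Functional Glycomics database supplied 3228 glycan arrays, of which those lacking an available protein sequence were dropped. The binding signal, a within-array Z-score, was averaged across arrays of the same protein sequence and across linkers. Negative scores can be read as non-binding.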
# [2] = target: Man(a1-3)[Man(a1-6)]Man(a1-6)[Man(a1-3)]Man(b1-4)GlcNAc(b1-4)GlcNAc
# In short: as §1
# [3] = target: Man(a1-3)[Man(a1-6)]Man(b1-4)GlcNAc(b1-4)GlcNAc
# In short: as §1
# Man(a1-6)Man = target: Man(a1-6)Man
# In short: as §1
# Man(b1-4)GlcNAc = target: Man(b1-4)GlcNAc
# In short: as §1
# Neu5Ac(a2-3)Gal = target: Neu5Ac(a2-3)Gal
# In short: as §1
# [4] = target: Neu5Ac(a2-3)Gal(b1-3)GalNAc
# In short: as §1
# [5] = target: Neu5Ac(a2-3)Gal(b1-3)GalNAc(b1-3)Gal(a1-4)Gal(b1-4)Glc
# In short: as §1
# [6] = target: Neu5Ac(a2-3)Gal(b1-3)GalNAc(b1-3)Gal(b1-4)GlcNAc
# In short: as §1
# [7] = target: Neu5Ac(a2-3)Gal(b1-3)GalNAc(b1-4)[Neu5Ac(a2-3)]Gal(b1-4)Glc
# In short: as §1
# [8] = target: Neu5Ac(a2-3)Gal(b1-3)GalNAc6S
# In short: as §1
# [9] = target: Neu5Ac(a2-3)Gal(b1-3)GlcNAc
# In short: as §1
# [10] = target: Neu5Ac(a2-3)Gal(b1-3)GlcNAc(b1-3)Gal(b1-3)GlcNAc
# In short: as §1
# [11] = target: Neu5Ac(a2-3)Gal(b1-3)GlcNAc6S
# In short: as §1
# [12] = target: Neu5Ac(a2-3)Gal(b1-3)[Fuc(a1-4)]GlcNAc
# In short: as §1
# [13] = target: Neu5Ac(a2-3)Gal(b1-3)[Fuc(a1-4)]GlcNAc(b1-3)Gal(b1-4)[Fuc(a1-3)]GlcNAc
# In short: as §1
# [14] = target: Neu5Ac(a2-3)Gal(b1-3)[Neu5Ac(a2-3)Gal(b1-4)]GlcNAc
# In short: as §1
# [15] = target: Neu5Ac(a2-3)Gal(b1-3)[Neu5Ac(a2-6)]GalNAc
# In short: as §1
# Neu5Ac(a2-3)Gal(b1-4)Glc = target: Neu5Ac(a2-3)Gal(b1-4)Glc
# In short: as §1
# [16] = target: Neu5Ac(a2-3)Gal(b1-4)GlcNAc
# In short: as §1
# [17] = target: Neu5Ac(a2-3)Gal(b1-4)GlcNAc(b1-2)Man(a1-3)[GlcNAc(b1-2)Man(b1-4)GlcNAc(b1-2)Man(a1-6)]Man(b1-4)GlcNAc(b1-4)GlcNAc
# In short: as §1
# [18] = target: Neu5Ac(a2-3)Gal(b1-4)GlcNAc(b1-2)Man(a1-3)[Neu5Ac(a2-6)Gal(b1-4)GlcNAc(b1-2)Man(a1-6)]Man(b1-4)GlcNAc(b1-4)GlcNAc
# In short: as §1
# [19] = target: Neu5Ac(a2-3)Gal(b1-4)GlcNAc(b1-3)Gal(b1-3)GlcNAc
# In short: as §1
# [20] = target: Neu5Ac(a2-3)Gal(b1-4)GlcNAc(b1-3)Gal(b1-4)GlcNAc
# In short: as §1
# [21] = target: Neu5Ac(a2-3)Gal(b1-4)GlcNAc(b1-3)Gal(b1-4)GlcNAc(b1-3)Gal(b1-4)GlcNAc
# In short: as §1
# [22] = target: Neu5Ac(a2-3)Gal(b1-4)GlcNAc(b1-3)Gal(b1-4)[Fuc(a1-3)]GlcNAc
# In short: as §1
# [23] = target: Neu5Ac(a2-3)Gal(b1-4)GlcNAc(b1-6)[Gal(b1-3)]GalNAc
# In short: as §1
# [24] = target: Neu5Ac(a2-3)Gal(b1-4)GlcNAc(b1-6)[Neu5Ac(a2-3)Gal(b1-3)]GalNAc
# In short: as §1
# [25] = target: Neu5Ac(a2-3)Gal(b1-4)GlcNAc6S
# In short: as §1
# [26] = target: Neu5Ac(a2-3)Gal(b1-4)[Fuc(a1-3)]GlcNAc
# In short: as §1
# [27] = target: Neu5Ac(a2-3)Gal(b1-4)[Fuc(a1-3)]GlcNAc(b1-3)Gal
# In short: as §1
# [28] = target: Neu5Ac(a2-3)Gal(b1-4)[Fuc(a1-3)]GlcNAc(b1-3)Gal(b1-4)GlcNAc
# In short: as §1
# [29] = target: Neu5Ac(a2-3)Gal(b1-4)[Fuc(a1-3)]GlcNAc(b1-3)Gal(b1-4)[Fuc(a1-3)]GlcNAc(b1-3)Gal(b1-4)[Fuc(a1-3)]GlcNAc
# In short: as §1
# [30] = target: Neu5Ac(a2-3)Gal(b1-4)[Fuc(a1-3)]GlcNAc(b1-6)[Gal(b1-3)]GalNAc
# In short: as §1
# [31] = target: Neu5Ac(a2-3)Gal(b1-4)[Fuc(a1-3)]GlcNAc6S
# In short: as §1
# [32] = target: Neu5Ac(a2-3)Gal6S(b1-4)GlcNAc
# In short: as §1
# [33] = target: Neu5Ac(a2-3)Gal6S(b1-4)[Fuc(a1-3)]GlcNAc
# In short: as §1
# Neu5Ac(a2-3)GalNAc = target: Neu5Ac(a2-3)GalNAc
# In short: as §1
# [34] = target: Neu5Ac(a2-3)GalNAc(b1-4)GlcNAc
# In short: as §1
# [35] = target: Neu5Ac(a2-3)[GalNAc(b1-4)]Gal(b1-4)Glc
# In short: as §1
# [36] = target: Neu5Ac(a2-3)[GalNAc(b1-4)]Gal(b1-4)GlcNAc
# In short: as §1
# [37] = target: Neu5Ac(a2-3)[Neu5Ac(a2-6)]GalNAc
# In short: as §1
# Neu5Ac(a2-6)Gal = target: Neu5Ac(a2-6)Gal
# In short: as §1
# Neu5Ac(a2-6)Gal(b1-4)Glc = target: Neu5Ac(a2-6)Gal(b1-4)Glc
# In short: as §1
# [38] = target: Neu5Ac(a2-6)Gal(b1-4)GlcNAc
# In short: as §1
binder,measurement,setting,value
B1,glycan array binding signal (z-score),[1],-0.684
same,glycan array binding signal (z-score),[2],-0.49
same,glycan array binding signal (z-score),[3],-0.823
same,glycan array binding signal (z-score),Man(a1-6)Man,-0.797
same,glycan array binding signal (z-score),Man(b1-4)GlcNAc,-0.875
same,glycan array binding signal (z-score),Neu5Ac(a2-3)Gal,-0.263
same,glycan array binding signal (z-score),[4],-0.56
same,glycan array binding signal (z-score),[5],-0.269
same,glycan array binding signal (z-score),[6],-0.416
same,glycan array binding signal (z-score),[7],-1.2
same,glycan array binding signal (z-score),[8],1.23
same,glycan array binding signal (z-score),[9],-1.04
same,glycan array binding signal (z-score),[10],-0.839
same,glycan array binding signal (z-score),[11],-0.54
same,glycan array binding signal (z-score),[12],-0.097
same,glycan array binding signal (z-score),[13],-0.883
same,glycan array binding signal (z-score),[14],-0.175
same,glycan array binding signal (z-score),[15],-0.442
same,glycan array binding signal (z-score),Neu5Ac(a2-3)Gal(b1-4)Glc,-0.952
same,glycan array binding signal (z-score),[16],0.472
same,glycan array binding signal (z-score),[17],-0.526
same,glycan array binding signal (z-score),[18],-1.03
same,glycan array binding signal (z-score),[19],-0.542
same,glycan array binding signal (z-score),[20],-1.59
same,glycan array binding signal (z-score),[21],0.306
same,glycan array binding signal (z-score),[22],-0.077
same,glycan array binding signal (z-score),[23],-0.749
same,glycan array binding signal (z-score),[24],-0.957
same,glycan array binding signal (z-score),[25],1.36
same,glycan array binding signal (z-score),[26],0.014
same,glycan array binding signal (z-score),[27],0.196
same,glycan array binding signal (z-score),[28],1
same,glycan array binding signal (z-score),[29],-0.16
same,glycan array binding signal (z-score),[30],-0.335
same,glycan array binding signal (z-score),[31],-0.086
same,glycan array binding signal (z-score),[32],0.897
same,glycan array binding signal (z-score),[33],1.03
same,glycan array binding signal (z-score),Neu5Ac(a2-3)GalNAc,0.552
same,glycan array binding signal (z-score),[34],0.108
same,glycan array binding signal (z-score),[35],-0.505
same,glycan array binding signal (z-score),[36],-0.093
same,glycan array binding signal (z-score),[37],-0.71
same,glycan array binding signal (z-score),Neu5Ac(a2-6)Gal,1.33
same,glycan array binding signal (z-score),Neu5Ac(a2-6)Gal(b1-4)Glc,-0.414
same,glycan array binding signal (z-score),[38],0.392

# A portion of the results above, for reference:
binder,measurement,setting,value
B1,glycan array binding signal (z-score),[36],-0.093
same,glycan array binding signal (z-score),[37],-0.71
same,glycan array binding signal (z-score),Neu5Ac(a2-6)Gal,1.33
same,glycan array binding signal (z-score),Neu5Ac(a2-6)Gal(b1-4)Glc,-0.414
